# Laboratory results published in PubChem BioAssay AID1487 (National Center for Advancing Translational Sciences (NCATS), 2009).
# The list shows a part of the results. The main result of the screen is listed elsewhere. These columns were measured beside it and carry no call. Most of these compounds were active or inconclusive in the main read-out, so they are no random draw. The note in brackets gives the kind of curve behind each potency; many fits are weak.
# Test: qHTS Assay for Modulators of Lamin A Splicing
# Conditions: HeLa LMNA splicing GFP/RFP minigene ratio, 48 h
# Method in brief: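 S3 HeLa cells stably expressing lamin A-EGFP splicing minigene plus DsRed2, 600 cells/well, 48 h compound exposure at 37C. Laser-scanning cytometry; analysed as GFP (500-530 nm)/RFP (575-640 nm) total intensity ratio; 0.5% DMSO vehicle.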
# [1] = measured here: RFP viability control channel
# [2] = measured here: GFP splicing reporter channel
SMILES,AC50 [1],AC50 [2]
c1ccc(C2=Nc3cccc4cccc(c34)N2)cc1,"3.55 µM [rising, partial curve]",
CCOc1ccc2nc(SC3CC(=O)N(c4ccccc4)C3=O)sc2c1 (stereo not given),"35.5 µM [falling, single point]","17.8 µM [falling, single point]"
CCC(O)CNC(=O)NC(=C(Cl)Cl)c1ccc(C)c(F)c1 (stereo not given),"22.4 µM [rising, partial curve]",
COc1cccc(CN2CCc3nc(Nc4ccc5c(c4)OCCO5)ncc3C2)c1,,"35.5 µM [falling, single point]"
Cc1ccc(O)c(N=Cc2ccc(C)s2)c1,"0.00447 µM [rising, full curve, poor fit]",
Cn1/c(=N/NC(=O)c2cccc(OC(F)F)c2)sc2ccccc21,"25.1 µM [rising, single point]","35.5 µM [rising, single point]"
CC(C)(C)n1ncc2c(=O)n(CC(=O)NCc3ccco3)cnc21,,"14.1 µM [falling, partial curve, poor fit]"
COc1ccc(C(=O)/C=C/c2ccccc2)c(O)c1,"35.5 µM [falling, partial curve]","1.12 µM [falling, full curve]"
O=C(COc1ncnc2sccc12)N1CCN(C(=O)c2ccco2)CC1,"0.0141 µM [falling, full curve, poor fit]","0.0141 µM [falling, full curve, poor fit]"
Cc1ccc2nc(N(Cc3cccnc3)C(=O)Cc3ccccc3)sc2c1,"3.16 µM [falling, partial curve]",
COc1cc(/C=C(/C#N)C(=O)Nc2ccc(C)cc2)ccc1Oc1nc(Cl)ncc1F,,"2 µM [rising, full curve]"
CC(C)COc1ccc(CN=C(N)N=C(N)N)cc1Cl,"22.4 µM [rising, single point]",
Cc1c2c(n3c(nc4ccccc43)c1C#N)N(CCCN(C)C)CC2,,"3.98 µM [falling, full curve, poor fit]"
C=CC1=C(C(=O)O)N2C(=O)[C@@H](NC(=O)/C(=N\OCC(=O)O)c3csc(N)n3)[C@@H]2SC1,"0.1 µM [falling, full curve, poor fit]","0.112 µM [falling, full curve, poor fit]"
Cc1cccc(COCC(Cc2ccccc2)N2CCN(C(=O)c3ccc(C(F)(F)F)cc3)CCC2=O)c1 (stereo not given),"15.8 µM [rising, partial curve]","10 µM [rising, partial curve, poor fit]"
CCCCn1c(=O)n(C)c(=O)c2c3c(sc21)COC(C)(C)C3,"14.1 µM [rising, partial curve]",
O=C(/C=C/c1ccc(Cl)cc1Cl)Nc1cccc(S(=O)(=O)NC2=NCCC2)c1,,"12.6 µM [falling, partial curve, poor fit]"
Cn1cc(-c2nc3cnc(N4CCNCC4)nc3n(CCc3ccccc3)c2=O)c2ccccc21,"12.6 µM [falling, partial curve]","12.6 µM [falling, partial curve]"
CCOC(=O)C1CCCN(C(=S)Nc2cccc(Cl)c2)C1 (stereo not given),"35.5 µM [rising, single point]",

# Compounds from the list above that contain a halogen:
SMILES,AC50 [1],AC50 [2]
CCC(O)CNC(=O)NC(=C(Cl)Cl)c1ccc(C)c(F)c1 (stereo not given),"22.4 µM [rising, partial curve]",
Cn1/c(=N/NC(=O)c2cccc(OC(F)F)c2)sc2ccccc21,"25.1 µM [rising, single point]","35.5 µM [rising, single point]"
COc1cc(/C=C(/C#N)C(=O)Nc2ccc(C)cc2)ccc1Oc1nc(Cl)ncc1F,,"2 µM [rising, full curve]"
CC(C)COc1ccc(CN=C(N)N=C(N)N)cc1Cl,"22.4 µM [rising, single point]",
Cc1cccc(COCC(Cc2ccccc2)N2CCN(C(=O)c3ccc(C(F)(F)F)cc3)CCC2=O)c1 (stereo not given),"15.8 µM [rising, partial curve]","10 µM [rising, partial curve, poor fit]"
O=C(/C=C/c1ccc(Cl)cc1Cl)Nc1cccc(S(=O)(=O)NC2=NCCC2)c1,,"12.6 µM [falling, partial curve, poor fit]"
CCOC(=O)C1CCCN(C(=S)Nc2cccc(Cl)c2)C1 (stereo not given),"35.5 µM [rising, single point]",

# Remaining list, next part

SMILES,AC50 [1],AC50 [2]
O=C(COC(=O)c1ccccc1C(=O)c1ccccc1)Nc1ccc(SC(F)F)cc1,"14.1 µM [rising, single point]",
Cc1ccc(O)c(C(=O)c2cnc3c(c2)CN(CCC(C)C)C(=O)N3)c1,"12.6 µM [rising, partial curve, poor fit]","11.2 µM [rising, partial curve]"
Cc1noc(C)c1-c1nc(Nc2ccncc2)c2ccccc2n1,,"3.16 µM [falling, partial curve, poor fit]"
Cc1nc2cc3ccccc3cc2n1C,"20 µM [falling, partial curve, poor fit]",
O=C(Nc1nnc(C2COc3ccccc3O2)o1)c1ccc(F)cc1 (stereo not given),"4.47 µM [rising, partial curve]",
CN(C)S(=O)(=O)c1cccc(NC(=S)N/N=C/C(=O)c2ccccc2)c1,"22.4 µM [rising, single point]",
O=C(N/N=C/c1c[nH]c2ccccc12)c1cccc([N+](=O)[O-])c1,"12.6 µM [rising, partial curve, poor fit]",
CCCc1[nH]nc2c1C(c1ccsc1)C(C#N)=C(N)O2 (stereo not given),"35.5 µM [falling, single point]",
COc1cccc(OC)c1C(=O)NC(=S)Nc1ccc2oc(=O)ccc2c1,"11.2 µM [rising, partial curve, poor fit]",
CCC(=O)Nc1ccc(Nc2nc(C)c([N+](=O)[O-])c(Nc3ccc(NC(=O)CC)cc3)n2)cc1,"25.1 µM [rising, single point]",
Cc1ccc(COc2cccc3c2CCN(Cc2ccc(F)cc2)C3=O)cc1,"25.1 µM [rising, single point]",
CN(CC(=O)Nc1ccc(C(N)=O)cc1)CC(=O)Nc1ccccc1Cl,"0.0794 µM [rising, partial curve]","0.01 µM [rising, full curve, poor fit]"
COc1ccccc1CNc1ncnc2ccc(-c3ccoc3)cc12,"12.6 µM [falling, partial curve]","10 µM [falling, partial curve]"
CCCCCCC/C=C\CCCCCCCCC(=O)O,"6.31 µM [falling, single point]","5.62 µM [falling, partial curve, poor fit]"
Cc1ccc(C(=O)NNC(=S)NC(=O)c2ccc(Cl)cc2Cl)cc1,"17.8 µM [rising, single point]",
COc1cccc(C(=O)N(Cc2cccnc2)c2nc3c(OC)ccc(C)c3s2)c1OC,"3.98 µM [rising, full curve, poor fit]",
COc1ccccc1OCCSc1nc2ccc([N+](=O)[O-])cc2s1,"17.8 µM [rising, partial curve]",
CC(=O)NC(=S)Nc1ccccc1C(=O)NC1CCCCC1,"12.6 µM [rising, partial curve]",
COc1ccc(NC(=O)c2ccc(COc3ccccc3Br)o2)cc1OC,"11.2 µM [rising, partial curve]",

# For reference, 2 of the compounds above.
SMILES,AC50 [1],AC50 [2]
O=C(COC(=O)c1ccccc1C(=O)c1ccccc1)Nc1ccc(SC(F)F)cc1,"14.1 µM [rising, single point]",
Cc1ccc(O)c(C(=O)c2cnc3c(c2)CN(CCC(C)C)C(=O)N3)c1,"12.6 µM [rising, partial curve, poor fit]","11.2 µM [rising, partial curve]"

# Further entries follow:

SMILES,AC50 [1],AC50 [2]
COc1ccccc1NS(=O)(=O)c1cc(C(=O)NCCC(C)C)ccc1F,,"0.00501 µM [falling, full curve, poor fit]"
Cn1nc(C(=O)NCc2cccc(Cl)c2)c2c1-c1ccccc1S(=O)(=O)C2,,"5.01 µM [falling, partial curve, poor fit]"
CCCCNC(=O)c1ccc(CS(=O)(=O)c2cccc(C(F)(F)F)c2)o1,"35.5 µM [rising, single point]",
Cc1c(C(=O)NCc2ccccn2)sc2nc(-c3ccc(F)cc3)cn12,,"17.8 µM [rising, single point]"
CCOC(=O)Cn1c(=O)n(C2CCCCC2)c2nc(-c3ccc(CC)cc3)nc(C(N)=O)c21,"4.47 µM [rising, full curve, poor fit]","4.47 µM [rising, full curve]"
N#CC(C(=O)OCc1ccccc1)c1nc2ccccc2nc1N1CCOCC1 (stereo not given),"3.98 µM [rising, single point]","15.8 µM [rising, single point]"
CC(=O)Nc1nc(COc2ccc3ccccc3c2)cs1,"8.91 µM [rising, partial curve]",
Cc1ccccc1N(C)S(=O)(=O)c1nnc(NC(=O)c2ccccc2F)s1,"8.91 µM [rising, partial curve, poor fit]",
Cc1ccc(S(=O)(=O)NCCc2csc(-c3ccc(Cl)cc3)n2)cc1,"35.5 µM [falling, partial curve]","35.5 µM [falling, single point]"
Cc1ccc(NC(=O)C(=O)NCCc2sc(-c3ccc(Cl)cc3)nc2C)cc1C,"14.1 µM [falling, partial curve, poor fit]","8.91 µM [falling, partial curve]"
O=C(Nc1ccncc1)c1cccs1,,"31.6 µM [rising, single point]"
COc1ccc(F)cc1S(=O)(=O)NCC(c1ccco1)S(=O)(=O)c1ccc(F)cc1 (stereo not given),"6.31 µM [rising, partial curve]",
Cc1ccc(-c2cc(C(=O)Nc3nccs3)c3ccccc3n2)o1,"28.2 µM [rising, single point]",
CCN(CC(=O)Nc1ccccc1OC)C(=O)Cn1cnc2ccccc2c1=O,"0.02 µM [falling, full curve, poor fit]",
O=Nc1c2nc3ccccc3n(O)c-2c2ccccc12,"11.2 µM [rising, partial curve]",
O=C(Nc1ccc(-n2nncc2-c2ccccc2)cc1)c1cccc(F)c1,"0.316 µM [falling, full curve]","2.51 µM [falling, full curve, poor fit]"
Cc1c(-c2ccccc2)oc2c(C(=O)OCCN3CCCCC3)cccc2c1=O,"1.26 µM [rising, single point]","1.12 µM [rising, single point]"
COCCn1c(C)cc(C(=O)CSc2cc(C)c3ccc(OC)cc3n2)c1C,"35.5 µM [rising, single point]",
O=C(O)CSCC(=O)N1CCN(S(=O)(=O)c2ccccc2)CC1,"0.00631 µM [falling, full curve, poor fit]","0.0178 µM [falling, full curve, poor fit]"
